Taken from: PubChem BioAssay AID1259254 (NCATS, 2017)
The whole screen tested about 59,000 reagents; below is a part drawn at random. About 1,550 of all reagents (2.6%) count as active. 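G2 share is only a proxy for re-replication; each gene was hit by three separate siRNAs, and active genes were retested.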 The numbers tell different reagents against one gene apart. Further read-outs or replicates are left out here. No sequences are given here. Not given: the amount of reagent.

Test: 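Gene knock-downs that lead to re-replication, shown by excess G2 DNA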 (primary screen)
System: human HCT116 colorectal cancer cells
Reagent: single siRNA against human genes
Time to read-out: 3 days
Measurement: 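Nuclei stained with Hoechst and imaged; cell-cycle phase assigned by DNA content; G2 share scaled per plate, non-targeting siRNA 0%, GMNN siRNA 100%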
Direction: G2 robust z-score: higher = more G2 cells, more excess DNA replication
Hit rule: 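An siRNA counts as active if its G2 robust z-score lies at least 5 MADs above the screen median; here such calls match roughly 38% of GMNN control or more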

The opening 2 records, to show the layout:
{"target":"ABCA3","reagent no.":1,"G2 robust z-score":-0.921,"outcome":"inactive"}
{"target":"ABCA3","reagent no.":2,"G2 robust z-score":-1.47,"outcome":"inactive"}

Results, from the first entry:
{"target":"ABCA3","reagent no.":1,"G2 robust z-score":-0.921,"outcome":"inactive"}
{"target":"ABCA3","reagent no.":2,"G2 robust z-score":-1.47,"outcome":"inactive"}
{"target":"ABCA3","reagent no.":3,"G2 robust z-score":-0.913,"outcome":"inactive"}
{"target":"ERP44","reagent no.":1,"G2 robust z-score":1.02,"outcome":"inactive"}
{"target":"ERP44","reagent no.":2,"G2 robust z-score":-0.589,"outcome":"inactive"}
{"target":"ERP44","reagent no.":3,"G2 robust z-score":-0.82,"outcome":"inactive"}
{"target":"RBKS","reagent no.":1,"G2 robust z-score":0.941,"outcome":"inactive"}
{"target":"RBKS","reagent no.":2,"G2 robust z-score":-0.997,"outcome":"inactive"}
{"target":"RBKS","reagent no.":3,"G2 robust z-score":1.17,"outcome":"inactive"}
{"target":"MAP1B","reagent no.":1,"G2 robust z-score":0.133,"outcome":"inactive"}
{"target":"MAP1B","reagent no.":2,"G2 robust z-score":0.355,"outcome":"inactive"}
{"target":"MAP1B","reagent no.":3,"G2 robust z-score":-0.745,"outcome":"inactive"}
{"target":"ANGPT4","reagent no.":1,"G2 robust z-score":-1.06,"outcome":"inactive"}
{"target":"ANGPT4","reagent no.":2,"G2 robust z-score":-0.878,"outcome":"inactive"}
{"target":"ANGPT4","reagent no.":3,"G2 robust z-score":-0.886,"outcome":"inactive"}
{"target":"NEUROG3","reagent no.":1,"G2 robust z-score":-0.545,"outcome":"inactive"}
{"target":"NEUROG3","reagent no.":2,"G2 robust z-score":-0.493,"outcome":"inactive"}
{"target":"NEUROG3","reagent no.":3,"G2 robust z-score":-1.17,"outcome":"inactive"}
{"target":"OR8G1","reagent no.":1,"G2 robust z-score":4.35,"outcome":"inactive"}
{"target":"OR8G1","reagent no.":2,"G2 robust z-score":0.467,"outcome":"inactive"}
{"target":"OR8G1","reagent no.":3,"G2 robust z-score":1.94,"outcome":"inactive"}
{"target":"MMADHC","reagent no.":1,"G2 robust z-score":-0.789,"outcome":"inactive"}
{"target":"MMADHC","reagent no.":2,"G2 robust z-score":0.0525,"outcome":"inactive"}
{"target":"MMADHC","reagent no.":3,"G2 robust z-score":-0.909,"outcome":"inactive"}
